For at least one compound, name, drawing or mass did not settle the structure.
Test system: P. gingivalis
Assay: Photodynamic therapy assay, bacteria suspended in PBS
Type: cell-based, Porphyromonas gingivalis 381
Conditions: xenon lamp 100 mW/cm^2, light dose 10 J/cm^2, 50 μg/ml TBO; detectable limit 300 cfu/ml (2.48 log cfu/ml)
From the text: The following bacteria were used in these experiments and cultivated in an anaerobic chamber (available commercially from Coy Manufacturing Co.; AnnArbor, Mich., USA): Porphyromonas gingivalis 381; Prevotella intermedia 25611; Actinobacillus actinomycetemcomitans UT32; Fusobacterium nucleatum 1213; Bacteroides forsythus 43037. P. gingivalis and P. intermedia strains were subcultured weekly in Todd Hewitt Broth (available commercially from Fisher Scientific; Nepean, Ontario, Canada; hereinafter referred to as Fisher) supplemented with 5 μg/ml hemin (Sigma-Aldrich Co.; Oakville, Ontario, Canada; hereinafter referred to as Sigma) and 1 μg/ml menadione (Sigma). A. actinomycetemcomitans was subcultured in Tryptic Soy Broth (Fisher) containing 6 g/l yeast extract (Fisher) and 8 ml of 1.5% sodium bicarbonate, filter sterilized (Fisher). F. nucleatum was subcultured in Todd Hewitt Broth. […]
A 100 Watt red-filtered xenon fibre optic light source having a bandwidth of 620-640 nm (available commercially from EXFO, Inc.; Mississauga, Ontario, Canada) was used in these experiments. […] Light dose for each source was calculated by the cross product of the TBO absorption spectrum and light spectrum. […]

## Cc1cc2nc3ccc(N(C)C)cc3[s+]c2cc1N [TBO, toluidine blue O]
  bacterial survivors of P. gingivalis: no bacterial colonies were visible
